These are yes or no findings as the source states them, for the method shown. Binding seen in cells or lysates may run through a third protein. Some results given as binding are weak or reduced against the parent protein; the word gives no strength. Sequences can lack the tags named with a protein.
How the values were obtained:
Experiment in all cases: co-IP; HEK293T cells transfected with the indicated plasmids, MG132 (20 µM) 2 h before harvest; 1% NP-40 lysis buffer with protease inhibitor; anti-HA or anti-Myc agarose beads overnight at 4°C; Western blotting with anti-HA, anti-Myc or anti-CUL1
[1] = target: T1, Myc-tagged DRE-1 (C. elegans) (UniProt Q94251)
T1 sequence: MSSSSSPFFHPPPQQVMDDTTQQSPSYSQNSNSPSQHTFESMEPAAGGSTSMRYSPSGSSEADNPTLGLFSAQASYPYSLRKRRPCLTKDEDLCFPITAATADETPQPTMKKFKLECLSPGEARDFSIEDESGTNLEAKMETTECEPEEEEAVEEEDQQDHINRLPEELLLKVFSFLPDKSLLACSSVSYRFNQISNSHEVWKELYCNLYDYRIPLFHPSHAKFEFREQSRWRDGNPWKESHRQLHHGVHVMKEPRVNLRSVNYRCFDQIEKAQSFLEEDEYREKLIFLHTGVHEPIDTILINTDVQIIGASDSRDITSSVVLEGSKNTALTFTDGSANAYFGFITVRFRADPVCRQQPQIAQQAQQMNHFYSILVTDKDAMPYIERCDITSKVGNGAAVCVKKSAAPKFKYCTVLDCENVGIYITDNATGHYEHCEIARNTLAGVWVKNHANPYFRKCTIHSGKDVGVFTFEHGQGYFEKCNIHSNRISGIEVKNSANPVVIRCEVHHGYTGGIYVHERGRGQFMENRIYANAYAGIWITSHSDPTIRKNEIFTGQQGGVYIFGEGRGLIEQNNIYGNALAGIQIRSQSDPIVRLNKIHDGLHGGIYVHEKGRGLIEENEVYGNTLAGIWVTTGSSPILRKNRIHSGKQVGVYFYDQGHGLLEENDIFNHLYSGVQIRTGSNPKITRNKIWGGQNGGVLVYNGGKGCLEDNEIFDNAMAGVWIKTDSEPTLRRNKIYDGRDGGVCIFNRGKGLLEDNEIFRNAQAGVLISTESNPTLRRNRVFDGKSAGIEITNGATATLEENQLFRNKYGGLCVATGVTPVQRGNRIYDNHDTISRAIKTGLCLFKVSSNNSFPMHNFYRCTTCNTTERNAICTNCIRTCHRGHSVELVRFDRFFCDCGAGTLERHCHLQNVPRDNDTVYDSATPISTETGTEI

Amino acid sequences for entries named in this document (tags omitted).
UniProt Q93560: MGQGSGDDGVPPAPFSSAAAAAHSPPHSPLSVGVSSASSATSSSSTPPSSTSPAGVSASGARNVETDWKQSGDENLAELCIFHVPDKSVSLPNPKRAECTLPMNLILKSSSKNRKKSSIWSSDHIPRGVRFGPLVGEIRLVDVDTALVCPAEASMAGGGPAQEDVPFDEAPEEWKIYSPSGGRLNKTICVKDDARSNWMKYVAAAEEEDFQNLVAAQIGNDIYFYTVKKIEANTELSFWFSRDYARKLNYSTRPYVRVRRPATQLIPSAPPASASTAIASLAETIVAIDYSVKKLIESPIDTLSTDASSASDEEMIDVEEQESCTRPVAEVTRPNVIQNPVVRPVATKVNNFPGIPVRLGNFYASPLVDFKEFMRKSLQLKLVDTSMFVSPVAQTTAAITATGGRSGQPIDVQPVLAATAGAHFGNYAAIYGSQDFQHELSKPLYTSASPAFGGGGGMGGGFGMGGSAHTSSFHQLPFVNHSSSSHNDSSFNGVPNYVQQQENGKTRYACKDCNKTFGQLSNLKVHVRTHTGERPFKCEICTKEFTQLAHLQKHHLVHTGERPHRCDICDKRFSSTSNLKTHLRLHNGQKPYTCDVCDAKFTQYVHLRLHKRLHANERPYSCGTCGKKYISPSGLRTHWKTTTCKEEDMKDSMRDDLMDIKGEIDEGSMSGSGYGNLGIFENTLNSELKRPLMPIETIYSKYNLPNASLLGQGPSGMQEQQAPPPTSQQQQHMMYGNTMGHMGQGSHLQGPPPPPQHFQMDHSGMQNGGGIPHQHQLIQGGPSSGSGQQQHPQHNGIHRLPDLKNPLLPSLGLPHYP
UniProt O75626: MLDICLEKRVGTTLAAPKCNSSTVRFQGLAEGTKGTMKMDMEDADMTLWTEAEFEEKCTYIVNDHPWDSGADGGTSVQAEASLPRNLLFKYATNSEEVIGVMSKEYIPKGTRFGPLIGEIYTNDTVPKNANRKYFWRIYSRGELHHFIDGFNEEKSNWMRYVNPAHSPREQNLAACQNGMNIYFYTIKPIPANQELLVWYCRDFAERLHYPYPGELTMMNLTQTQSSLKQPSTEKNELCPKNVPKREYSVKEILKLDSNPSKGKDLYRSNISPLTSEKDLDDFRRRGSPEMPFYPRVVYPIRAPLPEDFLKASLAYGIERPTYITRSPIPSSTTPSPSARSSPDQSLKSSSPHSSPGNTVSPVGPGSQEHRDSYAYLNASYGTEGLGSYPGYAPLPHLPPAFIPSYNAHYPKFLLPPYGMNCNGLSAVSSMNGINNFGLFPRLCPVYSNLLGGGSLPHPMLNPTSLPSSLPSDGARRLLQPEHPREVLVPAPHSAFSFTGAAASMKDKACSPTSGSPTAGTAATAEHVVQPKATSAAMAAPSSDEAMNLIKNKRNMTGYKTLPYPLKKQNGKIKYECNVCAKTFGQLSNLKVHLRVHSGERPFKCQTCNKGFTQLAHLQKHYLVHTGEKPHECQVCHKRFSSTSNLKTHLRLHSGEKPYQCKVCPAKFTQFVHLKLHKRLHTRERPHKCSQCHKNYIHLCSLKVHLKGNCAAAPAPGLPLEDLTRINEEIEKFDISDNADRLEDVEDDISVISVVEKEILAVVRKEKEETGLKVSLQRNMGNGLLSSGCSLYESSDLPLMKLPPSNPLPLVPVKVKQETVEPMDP

[2] = target: HA-tagged BLMP-1 (C. elegans) (UniProt Q93560)
[3] = target: HA-tagged PRDI-BF1 (human) (UniProt O75626)

HA-tagged BLMP-1 (from UniProt Q93560 1-817)
binding [1]: binds

B1: Myc-tagged DRE-1 (protein, UniProt Q94251 1-936)
chain: MSSSSSPFFHPPPQQVMDDTTQQSPSYSQNSNSPSQHTFESMEPAAGGSTSMRYSPSGSSEADNPTLGLFSAQASYPYSLRKRRPCLTKDEDLCFPITAATADETPQPTMKKFKLECLSPGEARDFSIEDESGTNLEAKMETTECEPEEEEAVEEEDQQDHINRLPEELLLKVFSFLPDKSLLACSSVSYRFNQISNSHEVWKELYCNLYDYRIPLFHPSHAKFEFREQSRWRDGNPWKESHRQLHHGVHVMKEPRVNLRSVNYRCFDQIEKAQSFLEEDEYREKLIFLHTGVHEPIDTILINTDVQIIGASDSRDITSSVVLEGSKNTALTFTDGSANAYFGFITVRFRADPVCRQQPQIAQQAQQMNHFYSILVTDKDAMPYIERCDITSKVGNGAAVCVKKSAAPKFKYCTVLDCENVGIYITDNATGHYEHCEIARNTLAGVWVKNHANPYFRKCTIHSGKDVGVFTFEHGQGYFEKCNIHSNRISGIEVKNSANPVVIRCEVHHGYTGGIYVHERGRGQFMENRIYANAYAGIWITSHSDPTIRKNEIFTGQQGGVYIFGEGRGLIEQNNIYGNALAGIQIRSQSDPIVRLNKIHDGLHGGIYVHEKGRGLIEENEVYGNTLAGIWVTTGSSPILRKNRIHSGKQVGVYFYDQGHGLLEENDIFNHLYSGVQIRTGSNPKITRNKIWGGQNGGVLVYNGGKGCLEDNEIFDNAMAGVWIKTDSEPTLRRNKIYDGRDGGVCIFNRGKGLLEDNEIFRNAQAGVLISTESNPTLRRNRVFDGKSAGIEITNGATATLEENQLFRNKYGGLCVATGVTPVQRGNRIYDNHDTISRAIKTGLCLFKVSSNNSFPMHNFYRCTTCNTTERNAICTNCIRTCHRGHSVELVRFDRFFCDCGAGTLERHCHLQNVPRDNDTVYDSATPISTETGTEI
binding [2]: binds

B2: Myc-tagged FBXO11 (protein, UniProt Q86XK2 1-927)
chain: MNSVRAANRRPRRVSRPRPVQQQQQQPPQQPPPQPPQQQPPQQQPPPPPQQQQQQQPPPPPPPPPPLPQERNNVGERDDDVPADMVAEESGPGAQNSPYQLRRKTLLPKRTACPTKNSMEGASTSTTENFGHRAKRARVSGKSQDLSAAPAEQYLQEKLPDEVVLKIFSYLLEQDLCRAACVCKRFSELANDPILWKRLYMEVFEYTRPMMHPEPGKFYQINPEEYEHPNPWKESFQQLYKGAHVKPGFAEHFYSNPARYKGRENMLYYDTIEDALGGVQEAHFDGLIFVHSGIYTDEWIYIESPITMIGAAPGKVADKVIIENTRDSTFVFMEGSEDAYVGYMTIRFNPDDKSAQHHNAHHCLEITVNCSPIIDHCIIRSTCTVGSAVCVSGQGACPTIKHCNISDCENVGLYITDHAQGIYEDNEISNNALAGIWVKNHGNPIIRRNHIHHGRDVGVFTFDHGMGYFESCNIHRNRIAGFEVKAYANPTVVRCEIHHGQTGGIYVHEKGRGQFIENKIYANNFAGVWITSNSDPTIRGNSIFNGNQGGVYIFGDGRGLIEGNDIYGNALAGIQIRTNSCPIVRHNKIHDGQHGGIYVHEKGQGVIEENEVYSNTLAGVWVTTGSTPVLRRNRIHSGKQVGVYFYDNGHGVLEDNDIYNHMYSGVQIRTGSNPKIRRNKIWGGQNGGILVYNSGLGCIEDNEIFDNAMAGVWIKTDSNPTLRRNKIHDGRDGGICIFNGGRGLLEENDIFRNAQAGVLISTNSHPILRKNRIFDGFAAGIEITNHATATLEGNQIFNNRFGGLFLASGVNVTMKDNKIMNNQDAIEKAVSRGQCLYKISSYTSYPMHDFYRCHTCNTTDRNAICVNCIKKCHQGHDVEFIRHDRFFCDCGAGTLSNPCTLAGEPTHDTDTLYDSAPPIESNTLQHN
binding [3]: binds

Source: publication PMC4072510
